Measured values reported in patent US20030162221A1.
Results are given in words; binding and its absence hold for the method and conditions named. In cells and extracts the contact can be indirect. Some entries that bind do so weakly or less than the wild type. For some of these results: Sequences can lack the tags named with a protein.

Amino acid sequences for entries named in this document (tags omitted).
UniProt P33204: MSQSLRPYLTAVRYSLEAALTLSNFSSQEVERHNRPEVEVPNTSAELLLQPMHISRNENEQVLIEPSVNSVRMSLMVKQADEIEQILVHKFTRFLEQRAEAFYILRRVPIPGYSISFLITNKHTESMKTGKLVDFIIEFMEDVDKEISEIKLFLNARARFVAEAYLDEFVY
UniProt P53731: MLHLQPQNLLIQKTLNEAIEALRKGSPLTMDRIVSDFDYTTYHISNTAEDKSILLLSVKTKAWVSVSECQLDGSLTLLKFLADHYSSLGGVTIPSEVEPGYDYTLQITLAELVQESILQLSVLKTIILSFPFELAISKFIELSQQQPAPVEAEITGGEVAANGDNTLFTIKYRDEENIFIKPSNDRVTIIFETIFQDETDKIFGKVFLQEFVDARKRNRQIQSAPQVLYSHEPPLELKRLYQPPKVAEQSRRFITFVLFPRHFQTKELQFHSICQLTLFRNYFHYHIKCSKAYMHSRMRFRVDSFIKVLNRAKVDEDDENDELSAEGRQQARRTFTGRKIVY
UniProt P32381: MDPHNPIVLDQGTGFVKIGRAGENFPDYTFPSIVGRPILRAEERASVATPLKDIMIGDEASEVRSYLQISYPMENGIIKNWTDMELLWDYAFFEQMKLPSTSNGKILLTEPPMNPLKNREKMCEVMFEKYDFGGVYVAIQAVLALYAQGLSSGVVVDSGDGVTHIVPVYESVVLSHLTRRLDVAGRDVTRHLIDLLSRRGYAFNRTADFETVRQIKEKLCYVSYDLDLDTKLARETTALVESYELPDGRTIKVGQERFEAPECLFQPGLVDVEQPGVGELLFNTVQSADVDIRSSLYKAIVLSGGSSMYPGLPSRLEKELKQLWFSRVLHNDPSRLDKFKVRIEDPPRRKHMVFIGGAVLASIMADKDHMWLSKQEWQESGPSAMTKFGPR
UniProt P47117: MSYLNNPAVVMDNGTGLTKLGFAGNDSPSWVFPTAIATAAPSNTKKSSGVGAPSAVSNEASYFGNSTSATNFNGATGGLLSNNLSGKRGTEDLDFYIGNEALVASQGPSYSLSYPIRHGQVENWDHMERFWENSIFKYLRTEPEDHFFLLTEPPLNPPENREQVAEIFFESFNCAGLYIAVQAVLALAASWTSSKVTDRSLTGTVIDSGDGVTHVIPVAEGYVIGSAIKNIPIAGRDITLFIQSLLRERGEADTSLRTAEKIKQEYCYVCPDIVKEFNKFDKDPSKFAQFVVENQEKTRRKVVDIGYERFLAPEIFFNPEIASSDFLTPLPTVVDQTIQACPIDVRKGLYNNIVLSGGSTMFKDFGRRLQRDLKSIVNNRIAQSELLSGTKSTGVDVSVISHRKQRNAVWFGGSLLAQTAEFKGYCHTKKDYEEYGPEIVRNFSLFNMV
UniProt Q05933: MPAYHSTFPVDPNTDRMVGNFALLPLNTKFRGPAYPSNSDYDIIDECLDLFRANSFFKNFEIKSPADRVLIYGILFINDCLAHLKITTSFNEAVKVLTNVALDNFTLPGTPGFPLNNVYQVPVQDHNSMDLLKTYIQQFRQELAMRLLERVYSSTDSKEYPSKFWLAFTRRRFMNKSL
UniProt P38328: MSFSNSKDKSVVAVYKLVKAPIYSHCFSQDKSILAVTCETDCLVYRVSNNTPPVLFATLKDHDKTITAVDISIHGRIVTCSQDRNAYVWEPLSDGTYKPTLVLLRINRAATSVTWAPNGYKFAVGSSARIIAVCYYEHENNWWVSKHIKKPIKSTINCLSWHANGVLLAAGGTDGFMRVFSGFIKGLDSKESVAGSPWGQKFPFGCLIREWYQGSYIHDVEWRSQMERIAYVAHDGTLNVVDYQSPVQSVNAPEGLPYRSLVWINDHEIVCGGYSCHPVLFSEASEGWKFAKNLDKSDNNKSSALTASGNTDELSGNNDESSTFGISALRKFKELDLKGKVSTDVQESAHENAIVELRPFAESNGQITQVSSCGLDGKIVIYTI
UniProt P40518: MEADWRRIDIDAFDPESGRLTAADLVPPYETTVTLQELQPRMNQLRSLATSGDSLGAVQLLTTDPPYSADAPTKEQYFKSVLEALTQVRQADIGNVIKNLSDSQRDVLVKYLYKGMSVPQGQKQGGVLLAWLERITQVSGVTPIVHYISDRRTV
UniProt P32447: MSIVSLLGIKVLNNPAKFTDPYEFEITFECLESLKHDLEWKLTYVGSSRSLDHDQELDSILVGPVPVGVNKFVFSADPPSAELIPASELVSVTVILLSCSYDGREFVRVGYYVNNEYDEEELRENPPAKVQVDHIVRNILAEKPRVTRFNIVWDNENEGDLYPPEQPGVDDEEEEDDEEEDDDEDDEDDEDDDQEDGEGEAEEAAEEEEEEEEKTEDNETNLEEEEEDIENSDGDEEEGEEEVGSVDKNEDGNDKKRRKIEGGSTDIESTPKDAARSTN
UniProt P12954: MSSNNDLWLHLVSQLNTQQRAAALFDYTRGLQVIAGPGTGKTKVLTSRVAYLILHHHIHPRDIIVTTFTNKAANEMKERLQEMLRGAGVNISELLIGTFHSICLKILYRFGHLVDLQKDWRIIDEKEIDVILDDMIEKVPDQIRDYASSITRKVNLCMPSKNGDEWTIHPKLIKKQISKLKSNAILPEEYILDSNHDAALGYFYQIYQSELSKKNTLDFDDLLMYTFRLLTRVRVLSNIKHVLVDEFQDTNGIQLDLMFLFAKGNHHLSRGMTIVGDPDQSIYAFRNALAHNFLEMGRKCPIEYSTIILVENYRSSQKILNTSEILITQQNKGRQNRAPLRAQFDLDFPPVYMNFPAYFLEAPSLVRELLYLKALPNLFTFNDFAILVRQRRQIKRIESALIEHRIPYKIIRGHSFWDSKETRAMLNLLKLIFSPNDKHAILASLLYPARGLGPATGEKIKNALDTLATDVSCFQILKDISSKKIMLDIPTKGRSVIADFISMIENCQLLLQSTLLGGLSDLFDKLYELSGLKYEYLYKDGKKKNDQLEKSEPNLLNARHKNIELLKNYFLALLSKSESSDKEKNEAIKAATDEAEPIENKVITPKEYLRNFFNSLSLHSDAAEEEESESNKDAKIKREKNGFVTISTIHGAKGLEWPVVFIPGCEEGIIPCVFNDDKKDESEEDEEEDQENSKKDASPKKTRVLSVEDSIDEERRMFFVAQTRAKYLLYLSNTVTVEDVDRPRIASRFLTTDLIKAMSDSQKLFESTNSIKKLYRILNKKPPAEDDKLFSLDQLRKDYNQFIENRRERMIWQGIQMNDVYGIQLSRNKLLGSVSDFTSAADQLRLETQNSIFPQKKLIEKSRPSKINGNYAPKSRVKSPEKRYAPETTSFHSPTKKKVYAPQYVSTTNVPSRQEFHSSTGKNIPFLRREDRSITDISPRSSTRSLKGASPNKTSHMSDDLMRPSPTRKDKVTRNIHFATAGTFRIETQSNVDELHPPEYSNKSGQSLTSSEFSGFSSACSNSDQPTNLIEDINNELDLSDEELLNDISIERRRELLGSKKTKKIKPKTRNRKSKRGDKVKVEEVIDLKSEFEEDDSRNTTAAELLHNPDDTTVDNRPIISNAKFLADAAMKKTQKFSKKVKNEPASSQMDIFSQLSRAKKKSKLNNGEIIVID
UniProt P22216: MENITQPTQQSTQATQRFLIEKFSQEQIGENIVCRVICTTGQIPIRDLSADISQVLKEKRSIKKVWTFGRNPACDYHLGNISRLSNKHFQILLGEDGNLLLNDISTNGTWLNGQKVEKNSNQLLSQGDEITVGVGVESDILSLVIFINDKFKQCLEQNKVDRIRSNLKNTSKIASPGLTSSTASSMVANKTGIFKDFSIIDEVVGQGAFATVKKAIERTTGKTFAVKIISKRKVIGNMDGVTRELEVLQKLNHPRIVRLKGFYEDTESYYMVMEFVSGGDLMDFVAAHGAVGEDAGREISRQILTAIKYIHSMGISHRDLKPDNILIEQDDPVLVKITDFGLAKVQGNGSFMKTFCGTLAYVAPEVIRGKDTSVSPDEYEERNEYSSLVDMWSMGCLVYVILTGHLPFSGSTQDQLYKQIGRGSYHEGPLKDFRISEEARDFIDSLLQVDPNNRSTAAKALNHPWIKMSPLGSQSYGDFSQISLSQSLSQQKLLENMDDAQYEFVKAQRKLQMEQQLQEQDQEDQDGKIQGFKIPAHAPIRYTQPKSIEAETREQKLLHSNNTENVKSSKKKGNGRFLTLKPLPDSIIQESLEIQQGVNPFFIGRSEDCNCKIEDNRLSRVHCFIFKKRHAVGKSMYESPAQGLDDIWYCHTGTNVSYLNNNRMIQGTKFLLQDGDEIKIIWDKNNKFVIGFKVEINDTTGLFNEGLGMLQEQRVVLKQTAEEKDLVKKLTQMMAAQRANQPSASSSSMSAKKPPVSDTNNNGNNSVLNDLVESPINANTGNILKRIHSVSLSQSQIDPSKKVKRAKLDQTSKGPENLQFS
UniProt P39940: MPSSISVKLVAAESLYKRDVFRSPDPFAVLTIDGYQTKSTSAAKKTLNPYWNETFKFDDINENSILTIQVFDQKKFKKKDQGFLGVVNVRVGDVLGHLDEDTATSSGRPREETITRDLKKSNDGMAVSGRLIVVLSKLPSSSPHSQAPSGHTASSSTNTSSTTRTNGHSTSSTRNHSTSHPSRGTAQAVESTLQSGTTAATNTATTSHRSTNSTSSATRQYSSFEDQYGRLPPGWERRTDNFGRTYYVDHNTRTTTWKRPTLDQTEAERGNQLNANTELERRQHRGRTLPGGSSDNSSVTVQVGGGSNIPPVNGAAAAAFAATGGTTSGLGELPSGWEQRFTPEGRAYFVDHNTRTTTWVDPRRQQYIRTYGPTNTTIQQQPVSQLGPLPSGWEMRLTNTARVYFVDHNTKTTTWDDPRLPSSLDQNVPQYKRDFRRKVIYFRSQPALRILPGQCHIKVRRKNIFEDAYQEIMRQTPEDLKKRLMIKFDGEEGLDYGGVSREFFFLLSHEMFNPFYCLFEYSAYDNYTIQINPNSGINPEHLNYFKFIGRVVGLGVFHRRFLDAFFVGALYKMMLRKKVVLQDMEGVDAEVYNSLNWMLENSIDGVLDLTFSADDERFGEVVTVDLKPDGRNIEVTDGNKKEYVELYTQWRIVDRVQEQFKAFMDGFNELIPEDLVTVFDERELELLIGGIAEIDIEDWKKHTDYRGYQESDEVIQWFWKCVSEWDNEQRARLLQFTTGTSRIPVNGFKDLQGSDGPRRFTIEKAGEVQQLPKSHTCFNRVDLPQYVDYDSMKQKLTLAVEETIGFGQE

Legend:
[1] = target: Arc19 (Saccharomyces cerevisiae) (UniProt P33204); experiment: anti-FLAG co-IP, LC-MS/MS
[2] = target: Arc35 (Saccharomyces cerevisiae) (UniProt P53731); experiment: anti-FLAG co-IP, LC-MS/MS
[3] = target: Arp2 (Saccharomyces cerevisiae) (UniProt P32381); experiment: anti-FLAG co-IP, LC-MS/MS
[4] = target: Arp3 (Saccharomyces cerevisiae) (UniProt P47117); experiment: anti-FLAG co-IP, LC-MS/MS
[5] = target: Arc18 (Saccharomyces cerevisiae) (UniProt Q05933); experiment: anti-FLAG co-IP, LC-MS/MS
[6] = target: Arc40 (Saccharomyces cerevisiae) (UniProt P38328); experiment: anti-FLAG co-IP, LC-MS/MS
[7] = target: Arc15 (Saccharomyces cerevisiae) (UniProt P40518); experiment: anti-FLAG co-IP, LC-MS/MS
[8] = target: T1, Dun1 (Saccharomyces cerevisiae) (UniProt P39009); experiment: anti-FLAG co-IP, LC-MS/MS
T1 sequence (looked up): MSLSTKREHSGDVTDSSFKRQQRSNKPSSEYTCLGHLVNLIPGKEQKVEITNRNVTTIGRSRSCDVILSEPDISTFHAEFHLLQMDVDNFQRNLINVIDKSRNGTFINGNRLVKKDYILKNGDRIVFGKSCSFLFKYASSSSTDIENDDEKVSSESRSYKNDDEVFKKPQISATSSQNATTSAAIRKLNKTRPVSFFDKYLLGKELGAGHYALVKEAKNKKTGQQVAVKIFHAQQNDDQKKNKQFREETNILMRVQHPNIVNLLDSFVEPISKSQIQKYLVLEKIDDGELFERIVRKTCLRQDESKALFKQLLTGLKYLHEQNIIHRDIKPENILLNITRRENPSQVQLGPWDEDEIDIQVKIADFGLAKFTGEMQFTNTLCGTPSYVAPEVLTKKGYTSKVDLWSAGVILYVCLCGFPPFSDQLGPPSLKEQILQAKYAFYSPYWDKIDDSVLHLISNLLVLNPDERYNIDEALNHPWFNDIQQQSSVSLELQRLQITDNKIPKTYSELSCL

[9] = target: T1, Dun1 (Saccharomyces cerevisiae); experiment: anti-FLAG co-IP, LC-MS/MS; Dun1 was the prey by Table 2
[10] = target: T2, Ydr071c (Saccharomyces cerevisiae) (UniProt Q12447); experiment: anti-FLAG co-IP, LC-MS/MS
T2 sequence (looked up): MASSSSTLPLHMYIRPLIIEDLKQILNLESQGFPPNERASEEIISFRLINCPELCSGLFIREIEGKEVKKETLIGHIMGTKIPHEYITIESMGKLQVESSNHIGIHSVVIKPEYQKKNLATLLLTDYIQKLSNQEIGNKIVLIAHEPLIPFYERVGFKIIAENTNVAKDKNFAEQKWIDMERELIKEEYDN

[11] = target: Asf1 (Saccharomyces cerevisiae) (UniProt P32447); experiment: anti-FLAG co-IP, LC-MS/MS
[12] = target: T3, Ptc2 (Saccharomyces cerevisiae) (UniProt P39966); experiment: anti-FLAG co-IP, LC-MS/MS
T3 sequence (looked up): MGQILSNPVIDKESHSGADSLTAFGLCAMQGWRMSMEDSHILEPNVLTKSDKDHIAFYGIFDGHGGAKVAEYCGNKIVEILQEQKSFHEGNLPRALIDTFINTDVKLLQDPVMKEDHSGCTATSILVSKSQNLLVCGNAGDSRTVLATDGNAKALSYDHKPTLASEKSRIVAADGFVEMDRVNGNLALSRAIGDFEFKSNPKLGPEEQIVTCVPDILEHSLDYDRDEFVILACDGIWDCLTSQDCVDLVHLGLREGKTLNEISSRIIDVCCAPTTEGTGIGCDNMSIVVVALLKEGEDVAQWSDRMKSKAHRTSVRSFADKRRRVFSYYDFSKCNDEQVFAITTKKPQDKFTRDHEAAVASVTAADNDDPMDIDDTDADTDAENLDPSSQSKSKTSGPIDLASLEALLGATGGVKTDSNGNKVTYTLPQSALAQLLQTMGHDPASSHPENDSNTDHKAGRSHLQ

[13] = target: T4, Swi4 (Saccharomyces cerevisiae) (UniProt P25302); experiment: anti-FLAG co-IP, LC-MS/MS
T4 sequence (looked up): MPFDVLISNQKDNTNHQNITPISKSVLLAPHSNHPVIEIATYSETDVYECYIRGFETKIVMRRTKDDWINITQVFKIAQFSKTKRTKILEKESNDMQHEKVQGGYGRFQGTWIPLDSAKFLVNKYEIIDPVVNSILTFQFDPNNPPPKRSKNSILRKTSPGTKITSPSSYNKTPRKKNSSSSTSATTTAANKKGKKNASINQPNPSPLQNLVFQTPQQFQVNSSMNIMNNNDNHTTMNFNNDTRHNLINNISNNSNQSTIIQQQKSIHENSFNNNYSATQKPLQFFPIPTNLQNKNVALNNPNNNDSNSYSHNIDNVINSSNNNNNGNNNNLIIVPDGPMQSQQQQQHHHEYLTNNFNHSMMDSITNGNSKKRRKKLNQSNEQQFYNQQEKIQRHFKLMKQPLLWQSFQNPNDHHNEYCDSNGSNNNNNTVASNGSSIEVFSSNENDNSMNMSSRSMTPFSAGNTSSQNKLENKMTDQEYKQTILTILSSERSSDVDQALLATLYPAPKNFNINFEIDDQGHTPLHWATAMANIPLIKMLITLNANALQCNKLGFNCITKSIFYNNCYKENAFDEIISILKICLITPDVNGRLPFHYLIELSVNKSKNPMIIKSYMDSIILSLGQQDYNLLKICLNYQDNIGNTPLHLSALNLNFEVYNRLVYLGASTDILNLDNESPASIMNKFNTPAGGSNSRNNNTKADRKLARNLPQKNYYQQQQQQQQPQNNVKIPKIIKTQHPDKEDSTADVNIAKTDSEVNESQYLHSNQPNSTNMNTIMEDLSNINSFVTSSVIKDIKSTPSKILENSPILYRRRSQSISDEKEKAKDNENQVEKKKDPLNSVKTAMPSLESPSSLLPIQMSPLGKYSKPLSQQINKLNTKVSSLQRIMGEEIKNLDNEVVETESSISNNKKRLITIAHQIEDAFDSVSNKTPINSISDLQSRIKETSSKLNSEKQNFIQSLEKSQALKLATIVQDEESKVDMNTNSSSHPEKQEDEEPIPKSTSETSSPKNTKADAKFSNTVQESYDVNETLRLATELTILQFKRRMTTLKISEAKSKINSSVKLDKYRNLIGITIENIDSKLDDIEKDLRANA

[14] = target: T4, Swi4 (Saccharomyces cerevisiae); experiment: anti-FLAG co-IP, LC-MS/MS; SWI4 is a prey of RAD53 in Table 2

Measured: binding

Arc40 (from UniProt P38328 1-384)
binds: [1] | [2] | [3] | [4] | [5]

Arp2 (from UniProt P32381 1-391)
binds: [1] | [2] | [6] | [7] | [4] | [5]

Hpr5 (Srs2) (from UniProt P12954 1-1174)
binds: [8] | [9]

Rad53 (from UniProt P22216 1-821)
binds: [10] | [8] | [11] | [12] | [13] | [14] | [9]

Rsp5 (from UniProt P39940 1-809)
binds: [8] | [9]
